The target in test [1] is PIWIL2 (piwi-like RNA-mediated gene silencing 2) (human) (UniProt Q8TC59). The test can be described thus: co-IP; lysates of KYSE150 and KYSE180 cells; immunoprecipitation with the indicated antibodies and protein A + G agarose beads, western blot. For orientation: In western blotting, separated proteins are transferred to a membrane and probed.
Test [2] has as its target PIWIL2 overexpressed from the PIWIL2 expression vector (human) (UniProt Q8TC59). The test can be described thus: co-IP; KYSE150 cells transfected with different amounts of PIWIL2 vector (1-3 µg); immunoprecipitation with anti-PIWIL2 or anti-TSC1, IKKβ detected by blot.
Test [3] addresses T1, TSC1 (tuberous sclerosis 1) (human (endogenous in KYSE150)) (UniProt Q92574).
T1 sequence: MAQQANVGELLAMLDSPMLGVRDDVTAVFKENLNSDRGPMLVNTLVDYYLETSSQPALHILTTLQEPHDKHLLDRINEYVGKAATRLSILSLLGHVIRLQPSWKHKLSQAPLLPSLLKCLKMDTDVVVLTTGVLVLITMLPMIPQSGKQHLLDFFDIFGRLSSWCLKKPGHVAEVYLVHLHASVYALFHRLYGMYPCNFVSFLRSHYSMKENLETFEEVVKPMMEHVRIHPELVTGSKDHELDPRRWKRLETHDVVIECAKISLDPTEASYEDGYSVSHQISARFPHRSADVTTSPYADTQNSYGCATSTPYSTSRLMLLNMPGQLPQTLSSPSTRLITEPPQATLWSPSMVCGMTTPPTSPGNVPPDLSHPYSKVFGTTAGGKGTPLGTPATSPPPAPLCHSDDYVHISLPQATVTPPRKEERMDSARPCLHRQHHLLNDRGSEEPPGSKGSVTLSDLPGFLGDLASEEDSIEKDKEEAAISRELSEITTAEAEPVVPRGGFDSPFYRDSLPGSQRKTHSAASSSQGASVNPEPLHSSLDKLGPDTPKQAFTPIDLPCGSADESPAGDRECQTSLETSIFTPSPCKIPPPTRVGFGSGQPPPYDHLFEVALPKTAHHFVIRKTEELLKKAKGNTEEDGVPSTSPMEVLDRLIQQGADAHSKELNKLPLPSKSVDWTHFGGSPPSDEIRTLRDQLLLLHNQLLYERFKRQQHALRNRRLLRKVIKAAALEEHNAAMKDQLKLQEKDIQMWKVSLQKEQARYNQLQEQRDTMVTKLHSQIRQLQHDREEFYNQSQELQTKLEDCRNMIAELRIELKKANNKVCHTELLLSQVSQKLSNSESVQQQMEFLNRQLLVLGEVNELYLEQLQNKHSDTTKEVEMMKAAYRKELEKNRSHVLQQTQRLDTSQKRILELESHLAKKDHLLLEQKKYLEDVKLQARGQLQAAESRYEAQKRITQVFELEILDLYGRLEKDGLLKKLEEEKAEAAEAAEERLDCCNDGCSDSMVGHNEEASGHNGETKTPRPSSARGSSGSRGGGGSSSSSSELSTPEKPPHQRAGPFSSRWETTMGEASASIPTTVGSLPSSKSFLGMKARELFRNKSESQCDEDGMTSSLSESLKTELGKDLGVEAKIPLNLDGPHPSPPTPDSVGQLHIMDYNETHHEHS
Described as above.

By UniProt entry, the sequences of proteins in these tests, tags left out.
UniProt Q8TC59: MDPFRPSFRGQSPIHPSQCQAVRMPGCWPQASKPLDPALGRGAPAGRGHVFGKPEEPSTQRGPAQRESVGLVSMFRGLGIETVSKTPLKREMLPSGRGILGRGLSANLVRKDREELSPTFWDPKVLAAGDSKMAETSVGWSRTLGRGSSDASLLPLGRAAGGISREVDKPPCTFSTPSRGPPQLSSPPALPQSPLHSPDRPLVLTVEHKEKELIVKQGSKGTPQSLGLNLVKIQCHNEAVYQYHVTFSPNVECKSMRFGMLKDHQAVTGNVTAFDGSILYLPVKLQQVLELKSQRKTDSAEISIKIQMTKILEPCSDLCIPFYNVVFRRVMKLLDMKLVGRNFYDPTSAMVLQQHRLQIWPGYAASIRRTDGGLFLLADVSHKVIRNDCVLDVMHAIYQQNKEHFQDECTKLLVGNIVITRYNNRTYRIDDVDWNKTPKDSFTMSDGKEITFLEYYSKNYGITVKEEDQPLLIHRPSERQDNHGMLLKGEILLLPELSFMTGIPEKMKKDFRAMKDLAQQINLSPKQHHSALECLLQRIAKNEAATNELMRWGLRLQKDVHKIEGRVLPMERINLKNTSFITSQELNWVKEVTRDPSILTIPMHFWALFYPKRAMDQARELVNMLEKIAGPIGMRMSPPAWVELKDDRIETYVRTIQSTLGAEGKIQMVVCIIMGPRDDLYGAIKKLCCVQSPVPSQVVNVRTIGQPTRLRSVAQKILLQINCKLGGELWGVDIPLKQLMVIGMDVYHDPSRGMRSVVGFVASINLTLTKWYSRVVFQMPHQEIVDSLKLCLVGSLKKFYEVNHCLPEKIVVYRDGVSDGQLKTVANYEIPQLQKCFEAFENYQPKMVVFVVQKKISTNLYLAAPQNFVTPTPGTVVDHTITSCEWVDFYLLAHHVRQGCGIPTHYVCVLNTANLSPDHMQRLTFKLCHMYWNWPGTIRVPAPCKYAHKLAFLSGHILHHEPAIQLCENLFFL

The target in test [4] is PIWIL2, cell-free expressed (TnT System) (human) (UniProt Q8TC59). The test can be described thus: co-IP; cell-free expression of PIWIL2, IKKβ and TSC1 with the TnT System, followed by immunoprecipitation.
The target in test [5] is T2, TSC1, cell-free expressed (TnT System) (UniProt Q92574).
T2 sequence: T1 sequence
The test is described as above.

Results are given in words; binding and its absence hold for the method and conditions named. In cells and extracts the contact can be indirect. Some entries that bind do so weakly or less than the wild type.

B1: IKKβ (protein, UniProt O14920 1-756)
chain: MSWSPSLTTQTCGAWEMKERLGTGGFGNVIRWHNQETGEQIAIKQCRQELSPRNRERWCLEIQIMRRLTHPNVVAARDVPEGMQNLAPNDLPLLAMEYCQGGDLRKYLNQFENCCGLREGAILTLLSDIASALRYLHENRIIHRDLKPENIVLQQGEQRLIHKIIDLGYAKELDQGSLCTSFVGTLQYLAPELLEQQKYTVTVDYWSFGTLAFECITGFRPFLPNWQPVQWHSKVRQKSEVDIVVSEDLNGTVKFSSSLPYPNNLNSVLAERLEKWLQLMLMWHPRQRGTDPTYGPNGCFKALDDILNLKLVHILNMVTGTIHTYPVTEDESLQSLKARIQQDTGIPEEDQELLQEAGLALIPDKPATQCISDGKLNEGHTLDMDLVFLFDNSKITYETQISPRPQPESVSCILQEPKRNLAFFQLRKVWGQVWHSIQTLKEDCNRLQQGQRAAMMNLLRNNSCLSKMKNSMASMSQQLKAKLDFFKTSIQIDLEKYSEQTEFGITSDKLLLAWREMEQAVELCGRENEVKLLVERMMALQTDIVDLQRSPMGRKQGGTLDDLEEQARELYRRLREKPRDQRTEGDSQEMVRLLLQAIQSFEKKVRVIYTQLSKTVVCKQKALELLPKVEEVVSLMNEDEKTVVRLQEKRQKELWNLLKIACSKVRGPVSGSPDSMNASRLSQPGQLMSQPSTASNSLPEPAKKSEELVAEAHNLCTLLENAIQDTVREQDQSFTALDWSWLQTEEEEHSCLEQAS
B1: the binding entry in test [1], in test [2] and in test [3] was “binds” throughout.

B2: IKKβ, cell-free expressed (TnT System) (protein, UniProt O14920 1-756)
chain: B1 chain
Consider B2, for which the binding entry in test [4] and in test [5] was “binds” throughout.

(Values after article PMC8184941.)
